The structures appear in SMILES notation. Where a name gives a salt, the structure may show the parent alone. ± gives the standard deviation of the averaged measurements. Most of the lowest values are listed elsewhere, so they are rarer here than in the full data.

Among the data in the supplement of paper PMC9262897, “Low-cost anti-mycobacterial drug discovery using engineered E. coli” (Nature Communications, 2022) are growth values, retold here.

The experiment deals with E. coli TESEC Alr+ wild-type control. As to the kind of experiment: growth (OD600 after 10 h); higher = more growth (less inhibition). The note with it: compound 0.1 mM; raw OD600 reference: median of DMSO wells 0.49, cell-free background 0.052. The protocol:
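TESEC Mtb Alr E. coli (ΔaraC ΔtolC ΔentC Δalr ΔdadX, arabinose-inducible Mtb Alr) or the Alr+ wild-type control strain, grown in defined M9-fructose medium without D-alanine in 96-well plates with Prestwick library compounds at 0.1 mM and 1% DMSO. Low Alr induction is 0.1 µM arabinose and high induction is 10 mM arabinose.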
With `CN1[C@@H]2CC[C@H]1C[C@@H](OC(=O)C(O)c1ccccc1)C2` (mixture of isomers) [Homatropine hydrobromide (R,S)], the growth was found to be 0.538 ± 0.018.
